According to publication PMC11157272, “Fructose-1-kinase has pleiotropic roles in Escherichia coli” (The Journal of Biological Chemistry, 2023):
No constants are given. Whether binding was seen depends on the method and setting. Binding seen in cells or lysates may run through a third protein. Some entries that bind do so weakly or less than the wild type.

The chains behind the UniProt entries cited, without tags or fusion partners.
UniProt P0ACP1: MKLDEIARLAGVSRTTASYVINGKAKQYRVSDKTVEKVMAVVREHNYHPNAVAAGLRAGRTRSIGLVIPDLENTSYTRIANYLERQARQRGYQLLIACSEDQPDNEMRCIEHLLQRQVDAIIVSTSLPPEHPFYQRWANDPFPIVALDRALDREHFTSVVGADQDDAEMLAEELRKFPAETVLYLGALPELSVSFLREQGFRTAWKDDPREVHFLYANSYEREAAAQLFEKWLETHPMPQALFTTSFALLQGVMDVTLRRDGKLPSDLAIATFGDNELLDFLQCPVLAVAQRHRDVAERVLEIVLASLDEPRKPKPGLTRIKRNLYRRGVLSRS

Target: catabolite repressor activator protein (WT Cra), untagged (E. coli) (UniProt P0ACP1)
Test: pull-down; DNA pull-down: biotinylated operator DNA (lacO^1 or O^cra) on streptavidin magnetic beads incubated with crude lysates of E. coli 3.300 over-expressing LLhF or WT Cra; cells grown in MOPS media with glycerol, with or without 20 mM fructose; washed in FB buffer (10 mM Tris-HCl, 150 mM KCl, 10 mM EDTA, 5% DMSO, 0.3 mM DTT, pH 7.4); SDS-PAGE, silver stain

B1: fructose-1-kinase (FruK), endogenous, expressed from the genomic fruBKA operon (enzyme, UniProt P0AEW9 1-312)
chain: MSRRVATITLNPAYDLVGFCPEIERGEVNLVKTTGLHAAGKGINVAKVLKDLGIDVTVGGFLGKDNQDGFQQLFSELGIANRFQVVQGRTRINVKLTEKDGEVTDFNFSGFEVTPADWERFVTDSLSWLGQFDMVCVSGSLPSGVSPEAFTDWMTRLRSQCPCIIFDSSREALVAGLKAAPWLVKPNRRELEIWAGRKLPEMKDVIEAAHALREQGIAHVVISLGAEGALWVNASGEWIAKPPSVDVVSTVGAGDSMVGGLIYGLLMRESSEHTLRLATAVAALAVSQSNVGITDRPQLAAMMARVDLQPFN
- binding: binds
